No constants are given. Whether binding was seen depends on the method and setting. In cells and extracts the contact can be indirect. Some binding calls cover weakened binding; strength is not graded here.

Amino acid sequences for entries named in this document (tags omitted). A change or cut given only in a name is not applied to a line headed by its entry. Chains listed by the source or under a name are the forms on record and can include a tag or linker.
Myc-CycT1-U7 (mutant of the C-terminal truncation CycT1(1–280) of human cyclin T1) (O60563, form named): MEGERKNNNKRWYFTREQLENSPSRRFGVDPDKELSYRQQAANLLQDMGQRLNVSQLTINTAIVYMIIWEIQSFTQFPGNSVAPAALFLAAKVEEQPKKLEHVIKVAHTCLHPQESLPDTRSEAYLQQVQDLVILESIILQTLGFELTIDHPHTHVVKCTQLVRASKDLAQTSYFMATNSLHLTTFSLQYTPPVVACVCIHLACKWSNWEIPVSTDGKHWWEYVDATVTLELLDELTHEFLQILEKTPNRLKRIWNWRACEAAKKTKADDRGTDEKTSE
UniProt P04608: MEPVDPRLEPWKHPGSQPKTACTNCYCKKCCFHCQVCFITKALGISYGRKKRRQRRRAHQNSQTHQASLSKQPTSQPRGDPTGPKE

In the assay the target is Myc-CycT1-U7 (mutant of the C-terminal truncation CycT1(1–280) of human cyclin T1) (human) (UniProt O60563). In words: co-IP; HeLa cells stably expressing Myc-CycT1-U7, transfected with HA-Tat; Epoxomicin 50 μM before lysis (legend: 30 min; text: 60 min); IP with anti-Myc, Western blot with anti-HA; normal rabbit IgG as negative control.

For the substance “HA-tagged HIV-1 Tat (from UniProt P04608 1-86)”, the binding result is “binds”.

Values taken from PMC2492875.
